Source: the supplement of paper PMC6411743
± gives the standard deviation of the averaged measurements. The list shows a part of the results, in another mix than the full data.

By UniProt entry, the sequences of proteins in these tests, tags left out. Where a name states a change or a piece, a line headed by the entry shows the natural chain unless it says otherwise.
UniProt Q147X3: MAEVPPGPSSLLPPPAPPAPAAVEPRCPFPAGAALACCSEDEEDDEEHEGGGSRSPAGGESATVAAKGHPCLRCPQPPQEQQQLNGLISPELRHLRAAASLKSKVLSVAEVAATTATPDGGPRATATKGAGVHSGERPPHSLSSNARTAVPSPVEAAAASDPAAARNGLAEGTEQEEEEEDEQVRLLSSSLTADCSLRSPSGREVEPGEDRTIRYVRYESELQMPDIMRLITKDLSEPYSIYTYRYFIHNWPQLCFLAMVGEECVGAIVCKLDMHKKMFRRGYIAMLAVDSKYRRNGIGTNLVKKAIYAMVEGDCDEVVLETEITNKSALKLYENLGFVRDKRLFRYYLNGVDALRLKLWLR
UniProt Q15669: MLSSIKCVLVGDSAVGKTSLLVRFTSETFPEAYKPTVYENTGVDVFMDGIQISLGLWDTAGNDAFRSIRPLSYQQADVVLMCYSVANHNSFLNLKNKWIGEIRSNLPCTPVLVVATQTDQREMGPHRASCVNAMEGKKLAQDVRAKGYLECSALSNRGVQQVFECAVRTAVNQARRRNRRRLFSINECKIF
UniProt Q14997: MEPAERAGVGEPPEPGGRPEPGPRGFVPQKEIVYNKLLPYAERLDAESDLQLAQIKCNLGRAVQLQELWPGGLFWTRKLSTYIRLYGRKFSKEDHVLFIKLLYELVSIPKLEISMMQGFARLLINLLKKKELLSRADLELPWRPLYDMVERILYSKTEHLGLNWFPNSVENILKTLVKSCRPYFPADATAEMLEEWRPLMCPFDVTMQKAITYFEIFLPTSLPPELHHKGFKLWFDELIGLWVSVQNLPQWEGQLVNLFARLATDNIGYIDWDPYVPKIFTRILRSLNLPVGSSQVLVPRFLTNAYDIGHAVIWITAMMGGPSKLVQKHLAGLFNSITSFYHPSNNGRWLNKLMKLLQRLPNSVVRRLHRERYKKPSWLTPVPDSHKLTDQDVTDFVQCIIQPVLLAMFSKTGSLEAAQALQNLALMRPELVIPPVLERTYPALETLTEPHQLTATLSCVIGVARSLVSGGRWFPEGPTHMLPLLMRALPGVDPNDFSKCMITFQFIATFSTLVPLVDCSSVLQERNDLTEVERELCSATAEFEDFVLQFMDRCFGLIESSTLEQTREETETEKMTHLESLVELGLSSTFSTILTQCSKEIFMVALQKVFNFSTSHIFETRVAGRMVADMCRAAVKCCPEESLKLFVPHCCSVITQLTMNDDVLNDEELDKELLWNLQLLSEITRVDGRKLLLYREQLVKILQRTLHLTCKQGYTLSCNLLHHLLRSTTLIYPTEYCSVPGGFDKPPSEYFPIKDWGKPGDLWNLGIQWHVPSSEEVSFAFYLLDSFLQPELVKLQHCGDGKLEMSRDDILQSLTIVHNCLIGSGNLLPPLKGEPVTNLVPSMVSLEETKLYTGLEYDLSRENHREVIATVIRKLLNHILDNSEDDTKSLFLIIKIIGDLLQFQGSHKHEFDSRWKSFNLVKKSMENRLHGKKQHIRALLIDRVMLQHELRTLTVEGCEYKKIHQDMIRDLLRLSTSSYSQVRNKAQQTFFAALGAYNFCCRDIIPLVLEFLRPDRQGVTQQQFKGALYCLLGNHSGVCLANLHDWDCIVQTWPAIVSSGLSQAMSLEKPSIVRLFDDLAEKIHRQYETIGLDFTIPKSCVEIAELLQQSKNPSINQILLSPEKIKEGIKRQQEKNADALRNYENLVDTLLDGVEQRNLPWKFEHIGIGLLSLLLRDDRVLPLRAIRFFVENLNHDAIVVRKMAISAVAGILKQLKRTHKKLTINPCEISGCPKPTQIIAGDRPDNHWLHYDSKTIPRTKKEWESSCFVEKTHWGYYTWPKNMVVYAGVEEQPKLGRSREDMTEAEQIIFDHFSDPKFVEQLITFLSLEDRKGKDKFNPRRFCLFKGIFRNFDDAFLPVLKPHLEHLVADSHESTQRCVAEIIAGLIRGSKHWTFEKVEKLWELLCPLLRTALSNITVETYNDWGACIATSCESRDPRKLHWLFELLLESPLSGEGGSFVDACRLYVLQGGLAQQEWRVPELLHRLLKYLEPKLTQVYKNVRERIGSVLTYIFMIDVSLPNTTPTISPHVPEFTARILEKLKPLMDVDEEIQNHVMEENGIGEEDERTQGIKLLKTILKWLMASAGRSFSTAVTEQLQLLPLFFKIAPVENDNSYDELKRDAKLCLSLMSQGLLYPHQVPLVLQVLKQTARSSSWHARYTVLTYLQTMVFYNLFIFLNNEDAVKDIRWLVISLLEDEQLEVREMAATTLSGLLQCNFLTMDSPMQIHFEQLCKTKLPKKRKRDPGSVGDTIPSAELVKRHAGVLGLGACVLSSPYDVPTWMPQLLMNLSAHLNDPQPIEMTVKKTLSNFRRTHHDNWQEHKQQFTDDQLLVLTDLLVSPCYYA
UniProt Q15477, whole entry: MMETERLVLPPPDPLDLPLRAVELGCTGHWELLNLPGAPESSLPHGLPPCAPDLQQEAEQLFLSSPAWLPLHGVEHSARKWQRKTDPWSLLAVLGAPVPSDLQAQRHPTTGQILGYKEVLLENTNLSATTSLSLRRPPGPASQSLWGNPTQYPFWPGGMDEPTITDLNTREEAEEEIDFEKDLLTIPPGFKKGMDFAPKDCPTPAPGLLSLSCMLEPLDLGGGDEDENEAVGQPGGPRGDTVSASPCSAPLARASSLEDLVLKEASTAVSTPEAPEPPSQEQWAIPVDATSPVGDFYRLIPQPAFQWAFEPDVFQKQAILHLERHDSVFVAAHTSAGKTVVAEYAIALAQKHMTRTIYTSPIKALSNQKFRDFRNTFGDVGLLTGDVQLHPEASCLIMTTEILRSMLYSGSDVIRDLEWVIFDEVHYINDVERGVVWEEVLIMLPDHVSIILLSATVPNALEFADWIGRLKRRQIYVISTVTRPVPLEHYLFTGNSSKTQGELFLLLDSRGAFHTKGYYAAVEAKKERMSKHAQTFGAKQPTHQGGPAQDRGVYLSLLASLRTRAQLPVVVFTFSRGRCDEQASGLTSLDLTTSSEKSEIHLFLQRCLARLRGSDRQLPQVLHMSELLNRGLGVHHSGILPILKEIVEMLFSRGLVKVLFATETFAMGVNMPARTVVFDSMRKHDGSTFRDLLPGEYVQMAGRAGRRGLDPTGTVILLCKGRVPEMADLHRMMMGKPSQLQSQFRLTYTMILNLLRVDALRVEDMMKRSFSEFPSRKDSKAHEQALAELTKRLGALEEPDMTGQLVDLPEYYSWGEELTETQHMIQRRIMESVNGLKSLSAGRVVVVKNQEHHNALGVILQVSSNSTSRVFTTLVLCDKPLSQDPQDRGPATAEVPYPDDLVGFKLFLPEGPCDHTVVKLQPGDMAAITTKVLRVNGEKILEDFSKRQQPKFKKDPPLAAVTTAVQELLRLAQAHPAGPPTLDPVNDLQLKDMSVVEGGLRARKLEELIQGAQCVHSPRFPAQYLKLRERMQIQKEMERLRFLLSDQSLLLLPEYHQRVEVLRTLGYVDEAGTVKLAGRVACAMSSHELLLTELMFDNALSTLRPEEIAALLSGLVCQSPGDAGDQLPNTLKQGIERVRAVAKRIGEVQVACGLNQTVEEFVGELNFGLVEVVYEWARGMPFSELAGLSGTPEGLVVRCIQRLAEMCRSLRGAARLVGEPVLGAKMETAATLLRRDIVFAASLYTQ
UniProt Q16401: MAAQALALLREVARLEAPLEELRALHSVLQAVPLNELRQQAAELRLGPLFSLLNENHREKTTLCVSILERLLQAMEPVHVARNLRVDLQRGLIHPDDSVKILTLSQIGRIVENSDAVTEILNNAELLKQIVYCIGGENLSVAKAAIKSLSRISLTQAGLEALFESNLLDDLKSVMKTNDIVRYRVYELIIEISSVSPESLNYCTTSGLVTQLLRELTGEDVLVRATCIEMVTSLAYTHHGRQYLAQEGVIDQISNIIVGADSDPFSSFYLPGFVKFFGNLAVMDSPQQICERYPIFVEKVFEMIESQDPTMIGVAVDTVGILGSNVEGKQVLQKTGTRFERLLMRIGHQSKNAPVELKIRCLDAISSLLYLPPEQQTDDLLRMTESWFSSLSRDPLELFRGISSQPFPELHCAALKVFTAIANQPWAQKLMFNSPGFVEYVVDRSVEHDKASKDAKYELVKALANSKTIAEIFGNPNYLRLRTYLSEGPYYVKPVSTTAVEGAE
UniProt Q14247: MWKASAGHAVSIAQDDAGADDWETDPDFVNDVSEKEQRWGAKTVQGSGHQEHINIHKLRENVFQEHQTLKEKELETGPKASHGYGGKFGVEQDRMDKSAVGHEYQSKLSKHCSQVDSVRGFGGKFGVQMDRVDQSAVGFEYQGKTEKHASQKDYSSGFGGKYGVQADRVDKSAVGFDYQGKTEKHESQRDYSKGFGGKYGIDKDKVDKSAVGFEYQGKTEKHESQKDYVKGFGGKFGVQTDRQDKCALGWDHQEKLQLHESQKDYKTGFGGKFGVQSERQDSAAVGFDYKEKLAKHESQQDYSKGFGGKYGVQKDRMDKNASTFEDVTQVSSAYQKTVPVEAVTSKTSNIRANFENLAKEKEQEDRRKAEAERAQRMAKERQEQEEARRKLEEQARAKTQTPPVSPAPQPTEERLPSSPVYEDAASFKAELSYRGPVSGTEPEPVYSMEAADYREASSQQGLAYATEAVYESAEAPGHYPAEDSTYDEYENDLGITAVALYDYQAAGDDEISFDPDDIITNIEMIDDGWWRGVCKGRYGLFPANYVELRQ
UniProt Q16763: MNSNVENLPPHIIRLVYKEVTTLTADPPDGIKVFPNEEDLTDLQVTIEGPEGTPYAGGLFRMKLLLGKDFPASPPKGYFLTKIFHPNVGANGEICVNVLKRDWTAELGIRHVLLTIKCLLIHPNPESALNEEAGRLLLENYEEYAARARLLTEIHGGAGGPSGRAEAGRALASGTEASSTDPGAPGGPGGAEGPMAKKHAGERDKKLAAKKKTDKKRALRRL
UniProt Q2TB10: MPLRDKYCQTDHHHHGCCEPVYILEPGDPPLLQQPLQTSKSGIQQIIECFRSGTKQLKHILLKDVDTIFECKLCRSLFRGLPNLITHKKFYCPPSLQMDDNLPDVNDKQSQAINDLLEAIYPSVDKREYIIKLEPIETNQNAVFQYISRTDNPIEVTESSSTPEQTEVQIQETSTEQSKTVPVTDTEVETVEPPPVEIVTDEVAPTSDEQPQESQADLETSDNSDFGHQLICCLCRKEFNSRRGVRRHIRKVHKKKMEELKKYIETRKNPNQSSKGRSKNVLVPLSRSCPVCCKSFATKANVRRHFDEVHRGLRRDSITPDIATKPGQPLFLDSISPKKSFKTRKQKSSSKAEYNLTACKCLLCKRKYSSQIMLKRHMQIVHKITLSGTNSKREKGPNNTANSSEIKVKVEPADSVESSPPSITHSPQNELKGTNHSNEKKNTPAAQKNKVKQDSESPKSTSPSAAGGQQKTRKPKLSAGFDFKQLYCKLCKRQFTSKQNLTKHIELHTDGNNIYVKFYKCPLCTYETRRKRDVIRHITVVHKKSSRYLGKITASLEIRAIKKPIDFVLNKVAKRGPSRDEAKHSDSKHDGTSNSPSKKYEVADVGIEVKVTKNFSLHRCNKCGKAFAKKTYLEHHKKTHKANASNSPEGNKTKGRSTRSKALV
UniProt Q3ZAQ7: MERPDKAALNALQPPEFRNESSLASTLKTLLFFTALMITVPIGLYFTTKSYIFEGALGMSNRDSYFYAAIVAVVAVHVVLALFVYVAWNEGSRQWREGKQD
UniProt Q14554: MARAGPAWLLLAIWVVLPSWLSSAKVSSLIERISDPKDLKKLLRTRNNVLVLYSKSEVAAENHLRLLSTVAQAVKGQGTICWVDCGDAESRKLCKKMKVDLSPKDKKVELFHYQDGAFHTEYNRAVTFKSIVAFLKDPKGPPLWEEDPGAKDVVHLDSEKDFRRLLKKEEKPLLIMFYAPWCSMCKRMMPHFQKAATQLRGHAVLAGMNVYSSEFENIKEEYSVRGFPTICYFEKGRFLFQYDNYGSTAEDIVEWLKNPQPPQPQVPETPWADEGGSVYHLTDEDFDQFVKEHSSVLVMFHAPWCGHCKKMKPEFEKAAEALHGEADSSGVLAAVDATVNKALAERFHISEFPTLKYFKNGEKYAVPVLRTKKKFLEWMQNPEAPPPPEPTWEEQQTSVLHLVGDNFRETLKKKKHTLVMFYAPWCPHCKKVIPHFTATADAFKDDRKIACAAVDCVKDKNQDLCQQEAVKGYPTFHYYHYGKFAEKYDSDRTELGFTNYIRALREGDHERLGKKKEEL

Compound: Nc1ncnc2c1ncn2[C@@H]1O[C@H](COP(=O)(O)OP(=O)(O)OP(=O)(O)O)[C@@H](O)[C@H]1O [adenosine triphosphate]
Test: NP40-soluble protein abundance relative to vehicle (solubility fold change) (ratio); higher = more soluble protein in presence of ATP
How it was run: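 Jurkat crude lysate prepared with a Dounce homogeniser was treated at eight concentrations spanning 0.1 to 10 mM, 10 min at room temperature then 3 min at 37 °C. Solubilisation with 0.8% NP40 and benzonase and ultracentrifugation preceded TMT labelling of the supernatant for LC-MS/MS. Fold change against the detergent-processed vehicle was determined per replicate from vsn-normalised intensities, across three independent experiments.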

Target	NP40-soluble protein abundance (concentration: 1mM)	NP40-soluble protein abundance (concentration: 2mM)	NP40-soluble protein abundance (concentration: 4mM)	NP40-soluble protein abundance (concentration: 6mM)	NP40-soluble protein abundance (concentration: 8mM)	NP40-soluble protein abundance (concentration: 10mM)
UniProt Q15555 and related entries	0.895 ± 0.049	0.8887 ± 0.0036	0.872 ± 0.017	0.952 ± 0.038	0.866 ± 0.032	0.909 ± 0.03
CCDC6 (UniProt Q16204)	0.956 ± 0.088	0.927 ± 0.036	0.882 ± 0.055	0.942 ± 0.052	0.8947 ± 0.0069	0.853 ± 0.05
RALBP1 (UniProt Q15311)	1.05 ± 0.026	1.07 ± 0.026	1.1 ± 0.044	1.13 ± 0.023	1.098 ± 0.0087	1.13 ± 0.02
UniProt Q16643 and related entries	0.631 ± 0.052	0.681 ± 0.047	0.728 ± 0.066	0.869 ± 0.12	0.88 ± 0.054	1.03 ± 0.067
UniProt Q2PPJ7 and related entries	1.39 ± 0.58	1.28 ± 0.51	1.18 ± 0.23	1.41 ± 0.76	1.03 ± 0.064	1.07 ± 0.15
CEBPE (UniProt Q15744)	0.938 ± 0.05	0.887 ± 0.053	0.9 ± 0.03	0.921 ± 0.074	0.849 ± 0.037	0.821 ± 0.056
KIF22 (UniProt Q14807)	1.23 ± 0.085	1.27 ± 0.048	1.41 ± 0.12	1.4 ± 0.049	1.41 ± 0.11	1.5 ± 0.12
UniProt Q147X3	0.926 ± 0.085	1 ± 0.068	1.02 ± 0.041	0.962 ± 0.071	0.982 ± 0.029	1.03 ± 0.025
MAN2A1 (UniProt Q16706)	1.04 ± 0.16	0.926 ± 0.072	0.939 ± 0.034	0.888 ± 0.066	0.918 ± 0.076	0.92 ± 0.043
UniProt Q14CX7	1.04 ± 0.064	1.04 ± 0.06	1.04 ± 0.063	1.01 ± 0.086	1.03 ± 0.06	1.02 ± 0.042
UniProt Q15750 and related entries	0.995 ± 0.033	0.985 ± 0.024	0.993 ± 0.034	0.982 ± 0.033	0.929 ± 0.015	0.974 ± 0.03
UniProt Q15020 and related entries	0.989 ± 0.022	0.958 ± 0.026	0.958 ± 0.033	0.975 ± 0.041	0.983 ± 0.04	0.976 ± 0.048
UniProt Q14687 and related entries	0.957 ± 0.05	0.941 ± 0.056	0.937 ± 0.041	0.974 ± 0.12	0.932 ± 0.046	0.944 ± 0.05
UniProt Q15669	1.03 ± 0.18	1.04 ± 0.037	1.04 ± 0.064	1.02 ± 0.058	1.107 ± 0.0062	1.16 ± 0.093
SF3A2 (UniProt Q15428)	1.05 ± 0.084	0.973 ± 0.25	1.08 ± 0.064	1.11 ± 0.056	1.07 ± 0.032	1.06 ± 0.11
NONO (UniProt Q15233)	1.08 ± 0.019	1.2 ± 0.021	1.41 ± 0.035	1.55 ± 0.046	1.51 ± 0.022	1.52 ± 0.019
UniProt Q15003 and related entries	0.976 ± 0.044	0.962 ± 0.038	0.942 ± 0.025	0.977 ± 0.047	0.943 ± 0.013	0.944 ± 0.015
UniProt Q14596 and related entries	0.943 ± 0.064	0.954 ± 0.12	0.946 ± 0.097	0.924 ± 0.13	0.962 ± 0.19	0.909 ± 0.13
PSME4 (UniProt Q14997)	1.07 ± 0.1	0.999 ± 0.029	0.999 ± 0.052	0.912 ± 0.025	1.03 ± 0.028	0.944 ± 0.026
VPS26B (UniProt Q4G0F5)	1.1 ± 0.27	1.06 ± 0.17	1.04 ± 0.16	0.919 ± 0.21	1.05 ± 0.13	1.03 ± 0.11

Target	NP40-soluble protein abundance (concentration: 1mM)	NP40-soluble protein abundance (concentration: 2mM)	NP40-soluble protein abundance (concentration: 4mM)	NP40-soluble protein abundance (concentration: 6mM)	NP40-soluble protein abundance (concentration: 8mM)	NP40-soluble protein abundance (concentration: 10mM)
UniProt Q14693 and related entries	1.03 ± 0.11	1.02 ± 0.076	0.987 ± 0.042	0.934 ± 0.1	0.967 ± 0.06	0.983 ± 0.048
SKIV2L (UniProt Q15477)	1.02 ± 0.051	1.06 ± 0.038	1.14 ± 0.018	1.14 ± 0.022	1.25 ± 0.048	1.3 ± 0.061
GNA13 (UniProt Q14344)	1.04 ± 0.097	0.99 ± 0.066	1 ± 0.073	0.955 ± 0.11	1.02 ± 0.067	0.957 ± 0.054
UniProt Q15390 and related entries	1.04 ± 0.065	1.01 ± 0.051	1.02 ± 0.062	1.07 ± 0.041	1.05 ± 0.062	1.02 ± 0.096
UniProt Q16698 and related entries	0.982 ± 0.022	1.03 ± 0.028	1.09 ± 0.028	1.16 ± 0.039	1.12 ± 0.047	1.11 ± 0.062
UniProt Q14157-4|Q14157-5|Q14157	0.991 ± 0.041	1.02 ± 0.019	1.01 ± 0.034	1.09 ± 0.032	1.02 ± 0.015	1.04 ± 0.014
PUS10 (UniProt Q3MIT2)	1.03 ± 0.12	1.05 ± 0.14	1.04 ± 0.17	0.95 ± 0.2	1.059 ± 0.0083	1.05 ± 0.06
UniProt Q16401 and related entries	1.03 ± 0.043	0.986 ± 0.014	0.976 ± 0.017	0.9541 ± 0.0081	0.992 ± 0.026	0.967 ± 0.027
KPNB1 (UniProt Q14974)	0.997 ± 0.031	1.023 ± 0.0065	0.997 ± 0.016	1.02 ± 0.016	1.01 ± 0.017	0.994 ± 0.045
LGALSL (UniProt Q3ZCW2)	1.02 ± 0.1	1.01 ± 0.12	1.02 ± 0.076	1.01 ± 0.046	0.99 ± 0.069	1.02 ± 0.062
BECN1 (UniProt Q14457)	1 ± 0.049	0.975 ± 0.034	0.965 ± 0.038	0.972 ± 0.066	0.982 ± 0.022	0.98 ± 0.04
UniProt Q16513 and related entries	0.983 ± 0.059	0.989 ± 0.054	1.01 ± 0.041	0.973 ± 0.079	1.01 ± 0.013	1.01 ± 0.071
UniProt Q14247 and related entries	1.01 ± 0.039	1.04 ± 0.032	1.066 ± 0.0018	1.14 ± 0.041	1.05 ± 0.044	1.06 ± 0.064
UniProt Q15652 and related entries	1.04 ± 0.022	1.03 ± 0.05	1.09 ± 0.032	1.13 ± 0.022	1.1 ± 0.071	1.12 ± 0.067
TBCC (UniProt Q15814)	0.937 ± 0.011	0.954 ± 0.011	0.985 ± 0.022	0.946 ± 0.035	0.946 ± 0.026	0.95 ± 0.022
UBE2S (UniProt Q16763)	1 ± 0.032	1.02 ± 0.004	1.04 ± 0.026	0.965 ± 0.07	1 ± 0.055	0.998 ± 0.037
ZNF800 (UniProt Q2TB10)	1.03 ± 0.085	1.05 ± 0.098	1.19 ± 0.098	1.3 ± 0.06	1.33 ± 0.051	1.58 ± 0.3
FSCN1 (UniProt Q16658)	1.05 ± 0.026	1.05 ± 0.049	1.08 ± 0.014	1 ± 0.062	1.06 ± 0.02	1.04 ± 0.075
TRMT5 (UniProt Q32P41)	0.962 ± 0.038	0.972 ± 0.052	0.948 ± 0.049	0.938 ± 0.072	0.957 ± 0.025	0.961 ± 0.036
LARS2 (UniProt Q15031)	1.02 ± 0.079	0.981 ± 0.087	0.984 ± 0.069	0.942 ± 0.13	1.01 ± 0.047	0.952 ± 0.034

Target	NP40-soluble protein abundance (concentration: 1mM)	NP40-soluble protein abundance (concentration: 2mM)	NP40-soluble protein abundance (concentration: 4mM)	NP40-soluble protein abundance (concentration: 6mM)	NP40-soluble protein abundance (concentration: 8mM)	NP40-soluble protein abundance (concentration: 10mM)
UniProt Q16666 and related entries	1.3 ± 0.043	1.39 ± 0.048	1.42 ± 0.047	1.49 ± 0.11	1.53 ± 0.048	1.57 ± 0.029
UniProt Q15006	0.966 ± 0.021	0.978 ± 0.045	0.985 ± 0.021	0.959 ± 0.027	0.987 ± 0.014	0.976 ± 0.035
UniProt Q15056 and related entries	0.92 ± 0.049	0.9197 ± 0.0031	0.922 ± 0.03	0.9303 ± 0.0084	0.921 ± 0.013	0.896 ± 0.032
UniProt Q3ZAQ7 and related entries	0.875 ± 0.14	0.9547 ± 0.0026	0.977 ± 0.015	0.867 ± 0.12	0.905 ± 0.027	0.899 ± 0.059
AP5B1 (UniProt Q2VPB7)	0.918 ± 0.011	0.885 ± 0.081	0.947 ± 0.037	0.841 ± 0.047	0.926 ± 0.11	0.908 ± 0.052
UniProt Q16829 and related entries	0.925 ± 0.033	0.945 ± 0.13	0.96 ± 0.052	0.955 ± 0.015	0.954 ± 0.0087	0.9079 ± 0.0045
MVP (UniProt Q14764)	1.06 ± 0.077	1.01 ± 0.13	1.01 ± 0.16	0.995 ± 0.21	0.986 ± 0.18	1.01 ± 0.17
Q1RLN5 and related entries (UniProt Q8IWW6)	0.977 ± 0.04	1.05 ± 0.12	1.06 ± 0.083	1 ± 0.048	1.1 ± 0.033	1.14 ± 0.12
UniProt Q15018	0.972 ± 0.04	0.961 ± 0.021	0.9491 ± 0.0046	0.945 ± 0.0082	0.939 ± 0.022	0.961 ± 0.045
UniProt Q15154 and related entries	1.03 ± 0.068	1 ± 0.051	1.04 ± 0.048	1.08 ± 0.087	1.03 ± 0.039	1.07 ± 0.042
UniProt Q15370	0.92 ± 0.05	0.946 ± 0.029	0.892 ± 0.029	0.947 ± 0.044	0.916 ± 0.0084	0.876 ± 0.05
UniProt Q14980 and related entries	1.2 ± 0.091	1.18 ± 0.071	1.13 ± 0.072	1.17 ± 0.14	1.07 ± 0.067	1.07 ± 0.042
UniProt Q15121 and related entries	0.879 ± 0.062	0.873 ± 0.053	0.891 ± 0.063	0.911 ± 0.077	0.85 ± 0.029	0.804 ± 0.062
UniProt Q16563-2|Q16563	0.93 ± 0.028	0.995 ± 0.1	0.966 ± 0.025	0.894 ± 0.064	0.913 ± 0.074	0.89 ± 0.083
UniProt Q14554 and related entries	1.05 ± 0.034	1.03 ± 0.017	1.06 ± 0.054	1.06 ± 0.032	1.1 ± 0.02	1.09 ± 0.019
RRS1 (UniProt Q15050)	1.04 ± 0.088	0.979 ± 0.12	1.01 ± 0.084	0.994 ± 0.16	0.907 ± 0.081	0.957 ± 0.048
UniProt Q14318-2|Q14318	0.975 ± 0.033	0.96 ± 0.024	0.919 ± 0.039	0.97 ± 0.022	0.92 ± 0.013	0.9411 ± 0.0055
TSC22D1 (UniProt Q15714)	1.02 ± 0.26	0.971 ± 0.21	1.12 ± 0.39	1.05 ± 0.31	1.04 ± 0.3	1.1 ± 0.31
NCOA2 (UniProt Q15596)	0.948 ± 0.036	0.965 ± 0.015	0.964 ± 0.067	0.989 ± 0.022	0.9483 ± 0.0065	0.958 ± 0.03
BRD3 (UniProt Q15059)	1.04 ± 0.071	1.07 ± 0.061	1.08 ± 0.045	1.14 ± 0.085	1.09 ± 0.015	1.1 ± 0.052

Shown field by field: entries from further up.
UniProt Q14318-2|Q14318
  NP40-soluble protein abundance (concentration: 1mM): 0.975 ± 0.033; NP40-soluble protein abundance (concentration: 2mM): 0.96 ± 0.024; NP40-soluble protein abundance (concentration: 4mM): 0.919 ± 0.039; NP40-soluble protein abundance (concentration: 6mM): 0.97 ± 0.022; NP40-soluble protein abundance (concentration: 8mM): 0.92 ± 0.013; NP40-soluble protein abundance (concentration: 10mM): 0.9411 ± 0.0055
TSC22D1 (UniProt Q15714)
  NP40-soluble protein abundance (concentration: 1mM): 1.02 ± 0.26; NP40-soluble protein abundance (concentration: 2mM): 0.971 ± 0.21; NP40-soluble protein abundance (concentration: 4mM): 1.12 ± 0.39; NP40-soluble protein abundance (concentration: 6mM): 1.05 ± 0.31; NP40-soluble protein abundance (concentration: 8mM): 1.04 ± 0.3; NP40-soluble protein abundance (concentration: 10mM): 1.1 ± 0.31
